# Assay results reported in the supplement of paper PMC8728848.
# Some of the results follow.
# B1: Epf (Streptococcus pyogenes) (protein)
# chain: GDHGPEFNGVMVVKAAEAEELPDDLMNFKGTWEVSADGSSGRFFSKGATDSYVFHLIPAKDVKKPGWREHNEVKDSYIKIDKQSIAARYKTSTTAPYSVAFKVNTKSLIKDHDYKITFEQGQIASGITVDYRIGSAFNKTTDDSFKISDESKYASNVKIEGEEQGFKQREQGDKTISFRTLKEGPMSLVLLSKVEKKPQGDLDVEFKNLKIIDVTNPSQLDKGVAYVGNKNVQLTLKSDDGRTNFEGDEISLFNSRGELLQTVTVTKDQQNPISITLSEDQAKSLKNKEKLKVSIKQKQSKKTSKDFFFEVGIDPKVEAKQKEKLLELDKVKKQIEDSINGDAWLPEKPVDLQGDHGLSAWSHPQFEK
# How the values were obtained:
# Assay in all cases: glycan array binding signal (z-score within array); higher = stronger binding
# Conditions in all cases: glycan notation: IUPAC condensed, linker removed
# Fuc(a1-2)Gal = target: Fuc(a1-2)Gal
# Summary of the method: (§1)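 The binding signal is a Z-score computed within each array. Data were drawn from 3228 arrays in the Consortium for Functional Glycomics database, restricted to those with a known protein sequence. Scores were averaged over arrays of the same protein sequence at different concentrations or buffers, and over linkers, and negative values can be taken as non-binding.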
# Fuc(a1-2)Gal(b1-3)GalNAc = target: Fuc(a1-2)Gal(b1-3)GalNAc
# Summary of the method: as §1
# [1] = target: Fuc(a1-2)Gal(b1-3)GalNAc(a1-3)[Fuc(a1-2)]Gal(b1-4)Glc
# Summary of the method: as §1
# [2] = target: Fuc(a1-2)Gal(b1-3)GalNAc(a1-3)[Fuc(a1-2)]Gal(b1-4)GlcNAc
# Summary of the method: as §1
# [3] = target: Fuc(a1-2)Gal(b1-3)GalNAc(b1-3)Gal
# Summary of the method: as §1
# [4] = target: Fuc(a1-2)Gal(b1-3)GalNAc(b1-3)Gal(a1-4)Gal(b1-4)Glc
# Summary of the method: as §1
# [5] = target: Fuc(a1-2)Gal(b1-3)GalNAc(b1-4)[Neu5Ac(a2-3)]Gal(b1-4)Glc
# Summary of the method: as §1
# Fuc(a1-2)Gal(b1-3)GlcNAc = target: Fuc(a1-2)Gal(b1-3)GlcNAc
# Summary of the method: as §1
# [6] = target: Fuc(a1-2)Gal(b1-3)GlcNAc(b1-2)Man(a1-3)[Fuc(a1-2)Gal(b1-3)GlcNAc(b1-2)Man(a1-6)]Man(b1-4)GlcNAc(b1-4)GlcNAc
# Summary of the method: as §1
# [7] = target: Fuc(a1-2)Gal(b1-3)GlcNAc(b1-2)Man(a1-3)[Fuc(a1-2)Gal(b1-3)GlcNAc(b1-2)Man(a1-6)]Man(b1-4)GlcNAc(b1-4)[Fuc(a1-6)]GlcNAc
# Summary of the method: as §1
# [8] = target: Fuc(a1-2)Gal(b1-3)GlcNAc(b1-3)Gal(b1-4)Glc
# Summary of the method: as §1
# [9] = target: Fuc(a1-2)Gal(b1-3)GlcNAc(b1-3)GalNAc
# Summary of the method: as §1
# [10] = target: Fuc(a1-2)Gal(b1-3)GlcNAc(b1-3)[Fuc(a1-2)Gal(b1-3)GlcNAc(b1-6)]GalNAc
# Summary of the method: as §1
# [11] = target: Fuc(a1-2)Gal(b1-3)GlcNAc(b1-3)[Gal(b1-4)GlcNAc(b1-6)]Gal(b1-4)Glc
# Summary of the method: as §1
# [12] = target: Fuc(a1-2)Gal(b1-3)GlcNAc(b1-3)[Neu5Ac(a2-6)Gal(b1-4)GlcNAc(b1-6)]Gal(b1-4)Glc
# Summary of the method: as §1
# [13] = target: Fuc(a1-2)Gal(b1-3)GlcNAc6S
# Summary of the method: as §1
# [14] = target: Fuc(a1-2)Gal(b1-3)[Fuc(a1-4)]GlcNAc
# Summary of the method: as §1
# [15] = target: Fuc(a1-2)Gal(b1-3)[Fuc(a1-4)]GlcNAc(b1-2)Man(a1-3)[Fuc(a1-2)Gal(b1-3)[Fuc(a1-4)]GlcNAc(b1-2)Man(a1-3)]Man(b1-4)GlcNAc(b1-4)GlcNAc
# Summary of the method: as §1
# [16] = target: Fuc(a1-2)Gal(b1-3)[Fuc(a1-4)]GlcNAc(b1-2)Man(a1-3)[Fuc(a1-2)Gal(b1-3)[Fuc(a1-4)]GlcNAc(b1-2)Man(a1-6)]Man(b1-4)GlcNAc(b1-4)[Fuc(a1-6)]GlcNAc(b1-4)[Fuc(a1-6)]GlcNAc
# Summary of the method: as §1
# [17] = target: Fuc(a1-2)Gal(b1-3)[Fuc(a1-4)]GlcNAc(b1-3)[Fuc(a1-3)[Gal(b1-4)]GlcNAc(b1-6)]Gal(b1-4)Glc
# Summary of the method: as §1
# [18] = target: Fuc(a1-2)Gal(b1-3)[Fuc(a1-4)]GlcNAc(b1-3)[Gal(b1-4)GlcNAc(b1-6)]Gal(b1-4)Glc
# Summary of the method: as §1
# Fuc(a1-2)Gal(b1-4)Glc = target: Fuc(a1-2)Gal(b1-4)Glc
# Summary of the method: as §1
# Fuc(a1-2)Gal(b1-4)Glc6S = target: Fuc(a1-2)Gal(b1-4)Glc6S
# Summary of the method: as §1
# Fuc(a1-2)Gal(b1-4)GlcNAc = target: Fuc(a1-2)Gal(b1-4)GlcNAc
# Summary of the method: as §1
# [19] = target: Fuc(a1-2)Gal(b1-4)GlcNAc(b1-2)Man
# Summary of the method: as §1
# [20] = target: Fuc(a1-2)Gal(b1-4)GlcNAc(b1-2)Man(a1-3)[Fuc(a1-2)Gal(b1-4)GlcNAc(b1-2)Man(a1-6)]Man(b1-4)GlcNAc(b1-4)GlcNAc
# Summary of the method: as §1
# [21] = target: Fuc(a1-2)Gal(b1-4)GlcNAc(b1-2)Man(a1-3)[Fuc(a1-2)Gal(b1-4)GlcNAc(b1-2)Man(a1-6)]Man(b1-4)GlcNAc(b1-4)[Fuc(a1-6)]GlcNAc
# Summary of the method: as §1
# [22] = target: Fuc(a1-2)Gal(b1-4)GlcNAc(b1-2)[Fuc(a1-2)Gal(b1-4)GlcNAc(b1-4)]Man(a1-3)[Fuc(a1-2)Gal(b1-4)GlcNAc(b1-2)Man(a1-6)]Man(b1-4)GlcNAc(b1-4)GlcNAc
# Summary of the method: as §1
# [23] = target: Fuc(a1-2)Gal(b1-4)GlcNAc(b1-3)Gal(b1-4)GlcNAc
# Summary of the method: as §1
# [24] = target: Fuc(a1-2)Gal(b1-4)GlcNAc(b1-3)Gal(b1-4)GlcNAc(b1-2)Man(a1-3)[Fuc(a1-2)Gal(b1-4)GlcNAc(b1-3)Gal(b1-4)GlcNAc(b1-2)Man(a1-6)]Man(b1-4)GlcNAc(b1-4)GlcNAc
# Summary of the method: as §1
binder,measurement,setting,value
B1,glycan array binding signal (z-score),Fuc(a1-2)Gal,-0.161
same,glycan array binding signal (z-score),Fuc(a1-2)Gal(b1-3)GalNAc,-0.657
same,glycan array binding signal (z-score),[1],-0.202
same,glycan array binding signal (z-score),[2],-0.788
same,glycan array binding signal (z-score),[3],1.32
same,glycan array binding signal (z-score),[4],0.142
same,glycan array binding signal (z-score),[5],1.5
same,glycan array binding signal (z-score),Fuc(a1-2)Gal(b1-3)GlcNAc,-0.175
same,glycan array binding signal (z-score),[6],-1.41
same,glycan array binding signal (z-score),[7],0.067
same,glycan array binding signal (z-score),[8],0.353
same,glycan array binding signal (z-score),[9],-0.266
same,glycan array binding signal (z-score),[10],0.775
same,glycan array binding signal (z-score),[11],-0.151
same,glycan array binding signal (z-score),[12],0.514
same,glycan array binding signal (z-score),[13],0.357
same,glycan array binding signal (z-score),[14],-0.21
same,glycan array binding signal (z-score),[15],-0.033
same,glycan array binding signal (z-score),[16],-1.59
same,glycan array binding signal (z-score),[17],3.33
same,glycan array binding signal (z-score),[18],-0.485
same,glycan array binding signal (z-score),Fuc(a1-2)Gal(b1-4)Glc,-0.293
same,glycan array binding signal (z-score),Fuc(a1-2)Gal(b1-4)Glc6S,-0.422
same,glycan array binding signal (z-score),Fuc(a1-2)Gal(b1-4)GlcNAc,0.703
same,glycan array binding signal (z-score),[19],0.654
same,glycan array binding signal (z-score),[20],0.142
same,glycan array binding signal (z-score),[21],0.038
same,glycan array binding signal (z-score),[22],-0.184
same,glycan array binding signal (z-score),[23],-1.08
same,glycan array binding signal (z-score),[24],-0.884

# Some of the entries above, reformatted.
binder | measurement | setting | value
B1 | glycan array binding signal (z-score) | [8] | 0.353
same | glycan array binding signal (z-score) | [9] | -0.266
